This note sets out measurements from the supplement of paper PMC10849652.

Amino acid sequences for entries named in this document (tags omitted). A change or cut given only in a name is not applied to a line headed by its entry.
UniProt Q9Y4C5: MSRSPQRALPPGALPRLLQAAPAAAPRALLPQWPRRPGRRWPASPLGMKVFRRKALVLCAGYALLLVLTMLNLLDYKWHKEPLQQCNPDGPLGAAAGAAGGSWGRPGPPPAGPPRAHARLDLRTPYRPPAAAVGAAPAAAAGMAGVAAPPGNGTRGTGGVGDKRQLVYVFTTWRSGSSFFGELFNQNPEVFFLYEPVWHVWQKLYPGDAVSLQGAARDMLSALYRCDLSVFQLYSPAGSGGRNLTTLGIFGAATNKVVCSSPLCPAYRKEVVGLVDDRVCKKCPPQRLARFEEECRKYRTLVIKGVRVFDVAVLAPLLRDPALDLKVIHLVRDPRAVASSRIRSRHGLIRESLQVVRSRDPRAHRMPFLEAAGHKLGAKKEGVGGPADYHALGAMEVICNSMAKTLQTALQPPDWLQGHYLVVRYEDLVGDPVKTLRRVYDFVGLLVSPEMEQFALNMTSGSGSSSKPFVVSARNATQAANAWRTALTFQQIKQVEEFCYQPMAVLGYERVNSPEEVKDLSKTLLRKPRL
UniProt Q9H9E3: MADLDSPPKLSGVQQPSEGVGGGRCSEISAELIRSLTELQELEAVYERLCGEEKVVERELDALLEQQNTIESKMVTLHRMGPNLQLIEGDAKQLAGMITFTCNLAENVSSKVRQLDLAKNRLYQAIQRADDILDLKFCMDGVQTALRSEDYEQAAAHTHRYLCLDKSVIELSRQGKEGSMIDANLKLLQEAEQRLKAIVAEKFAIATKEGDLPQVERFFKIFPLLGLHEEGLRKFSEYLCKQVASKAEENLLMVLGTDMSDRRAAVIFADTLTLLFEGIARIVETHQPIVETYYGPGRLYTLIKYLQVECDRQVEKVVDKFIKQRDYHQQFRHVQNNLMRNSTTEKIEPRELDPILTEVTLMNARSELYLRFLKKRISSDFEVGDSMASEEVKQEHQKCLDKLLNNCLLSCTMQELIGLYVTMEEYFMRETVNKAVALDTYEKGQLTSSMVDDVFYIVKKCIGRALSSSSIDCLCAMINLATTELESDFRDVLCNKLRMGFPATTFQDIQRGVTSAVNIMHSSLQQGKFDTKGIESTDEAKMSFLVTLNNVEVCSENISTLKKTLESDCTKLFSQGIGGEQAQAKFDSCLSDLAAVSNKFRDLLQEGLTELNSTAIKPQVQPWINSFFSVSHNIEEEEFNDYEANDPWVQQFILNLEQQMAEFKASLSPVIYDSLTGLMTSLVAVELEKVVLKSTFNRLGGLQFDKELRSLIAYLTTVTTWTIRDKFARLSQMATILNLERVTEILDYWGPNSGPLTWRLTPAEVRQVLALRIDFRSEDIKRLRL
UniProt Q15417: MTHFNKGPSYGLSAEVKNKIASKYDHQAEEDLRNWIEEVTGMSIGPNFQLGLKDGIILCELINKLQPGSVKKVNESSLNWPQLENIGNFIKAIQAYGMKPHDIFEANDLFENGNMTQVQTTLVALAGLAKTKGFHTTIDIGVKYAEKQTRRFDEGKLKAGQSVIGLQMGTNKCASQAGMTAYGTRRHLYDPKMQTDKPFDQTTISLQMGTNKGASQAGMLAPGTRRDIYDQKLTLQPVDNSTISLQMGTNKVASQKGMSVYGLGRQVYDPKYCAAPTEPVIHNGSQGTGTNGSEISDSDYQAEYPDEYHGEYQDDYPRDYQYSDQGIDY
UniProt Q9UBY8, whole entry, looked up: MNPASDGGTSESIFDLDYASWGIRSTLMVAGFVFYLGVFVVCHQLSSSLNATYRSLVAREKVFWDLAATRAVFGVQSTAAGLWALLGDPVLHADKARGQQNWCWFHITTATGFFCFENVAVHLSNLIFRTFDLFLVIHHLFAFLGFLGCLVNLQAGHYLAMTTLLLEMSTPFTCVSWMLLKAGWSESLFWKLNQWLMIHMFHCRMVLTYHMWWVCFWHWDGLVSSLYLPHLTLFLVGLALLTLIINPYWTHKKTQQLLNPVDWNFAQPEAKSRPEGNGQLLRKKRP
UniProt O75122: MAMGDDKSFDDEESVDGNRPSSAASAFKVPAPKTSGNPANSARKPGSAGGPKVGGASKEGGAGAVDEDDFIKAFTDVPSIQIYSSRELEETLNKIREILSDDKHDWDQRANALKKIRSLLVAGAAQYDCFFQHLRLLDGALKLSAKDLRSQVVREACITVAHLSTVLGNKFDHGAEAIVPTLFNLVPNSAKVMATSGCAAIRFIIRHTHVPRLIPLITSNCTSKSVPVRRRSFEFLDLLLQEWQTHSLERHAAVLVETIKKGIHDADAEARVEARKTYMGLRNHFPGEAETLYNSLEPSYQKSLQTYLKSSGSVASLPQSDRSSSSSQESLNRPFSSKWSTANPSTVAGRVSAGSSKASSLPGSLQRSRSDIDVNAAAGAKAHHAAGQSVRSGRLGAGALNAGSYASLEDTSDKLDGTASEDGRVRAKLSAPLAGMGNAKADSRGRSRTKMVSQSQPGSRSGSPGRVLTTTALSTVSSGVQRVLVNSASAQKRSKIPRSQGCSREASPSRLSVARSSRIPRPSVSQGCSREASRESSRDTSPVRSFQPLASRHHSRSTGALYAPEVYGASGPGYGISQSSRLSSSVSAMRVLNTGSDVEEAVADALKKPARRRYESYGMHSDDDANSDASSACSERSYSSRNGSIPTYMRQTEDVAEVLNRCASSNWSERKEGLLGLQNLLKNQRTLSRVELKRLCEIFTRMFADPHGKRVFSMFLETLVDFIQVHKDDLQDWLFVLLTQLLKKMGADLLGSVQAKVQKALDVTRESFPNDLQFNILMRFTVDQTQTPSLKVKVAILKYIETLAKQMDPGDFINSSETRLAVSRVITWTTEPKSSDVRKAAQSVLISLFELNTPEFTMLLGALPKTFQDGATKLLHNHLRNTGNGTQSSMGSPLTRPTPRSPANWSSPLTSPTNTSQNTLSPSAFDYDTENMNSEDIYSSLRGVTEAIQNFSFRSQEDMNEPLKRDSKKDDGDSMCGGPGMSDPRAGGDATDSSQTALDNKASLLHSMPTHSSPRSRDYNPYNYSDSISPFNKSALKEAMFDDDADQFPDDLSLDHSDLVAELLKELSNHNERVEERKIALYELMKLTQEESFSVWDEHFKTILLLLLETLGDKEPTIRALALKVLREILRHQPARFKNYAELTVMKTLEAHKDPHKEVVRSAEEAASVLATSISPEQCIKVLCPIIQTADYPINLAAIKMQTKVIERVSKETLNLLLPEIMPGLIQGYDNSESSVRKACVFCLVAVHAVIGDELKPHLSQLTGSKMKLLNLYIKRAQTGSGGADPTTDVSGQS
UniProt Q5EBM0: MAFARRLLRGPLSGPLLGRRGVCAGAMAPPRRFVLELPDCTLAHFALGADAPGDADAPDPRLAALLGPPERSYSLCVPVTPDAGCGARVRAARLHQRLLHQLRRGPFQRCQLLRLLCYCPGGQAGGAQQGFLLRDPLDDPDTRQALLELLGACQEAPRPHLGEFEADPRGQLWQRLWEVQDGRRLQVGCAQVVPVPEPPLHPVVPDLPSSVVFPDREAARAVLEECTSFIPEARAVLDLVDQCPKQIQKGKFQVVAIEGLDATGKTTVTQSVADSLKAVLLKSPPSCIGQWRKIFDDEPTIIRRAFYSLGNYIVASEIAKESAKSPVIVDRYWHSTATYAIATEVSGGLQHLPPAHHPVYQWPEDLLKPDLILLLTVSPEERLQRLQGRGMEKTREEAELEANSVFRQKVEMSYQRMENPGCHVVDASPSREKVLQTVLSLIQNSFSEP
UniProt P30622: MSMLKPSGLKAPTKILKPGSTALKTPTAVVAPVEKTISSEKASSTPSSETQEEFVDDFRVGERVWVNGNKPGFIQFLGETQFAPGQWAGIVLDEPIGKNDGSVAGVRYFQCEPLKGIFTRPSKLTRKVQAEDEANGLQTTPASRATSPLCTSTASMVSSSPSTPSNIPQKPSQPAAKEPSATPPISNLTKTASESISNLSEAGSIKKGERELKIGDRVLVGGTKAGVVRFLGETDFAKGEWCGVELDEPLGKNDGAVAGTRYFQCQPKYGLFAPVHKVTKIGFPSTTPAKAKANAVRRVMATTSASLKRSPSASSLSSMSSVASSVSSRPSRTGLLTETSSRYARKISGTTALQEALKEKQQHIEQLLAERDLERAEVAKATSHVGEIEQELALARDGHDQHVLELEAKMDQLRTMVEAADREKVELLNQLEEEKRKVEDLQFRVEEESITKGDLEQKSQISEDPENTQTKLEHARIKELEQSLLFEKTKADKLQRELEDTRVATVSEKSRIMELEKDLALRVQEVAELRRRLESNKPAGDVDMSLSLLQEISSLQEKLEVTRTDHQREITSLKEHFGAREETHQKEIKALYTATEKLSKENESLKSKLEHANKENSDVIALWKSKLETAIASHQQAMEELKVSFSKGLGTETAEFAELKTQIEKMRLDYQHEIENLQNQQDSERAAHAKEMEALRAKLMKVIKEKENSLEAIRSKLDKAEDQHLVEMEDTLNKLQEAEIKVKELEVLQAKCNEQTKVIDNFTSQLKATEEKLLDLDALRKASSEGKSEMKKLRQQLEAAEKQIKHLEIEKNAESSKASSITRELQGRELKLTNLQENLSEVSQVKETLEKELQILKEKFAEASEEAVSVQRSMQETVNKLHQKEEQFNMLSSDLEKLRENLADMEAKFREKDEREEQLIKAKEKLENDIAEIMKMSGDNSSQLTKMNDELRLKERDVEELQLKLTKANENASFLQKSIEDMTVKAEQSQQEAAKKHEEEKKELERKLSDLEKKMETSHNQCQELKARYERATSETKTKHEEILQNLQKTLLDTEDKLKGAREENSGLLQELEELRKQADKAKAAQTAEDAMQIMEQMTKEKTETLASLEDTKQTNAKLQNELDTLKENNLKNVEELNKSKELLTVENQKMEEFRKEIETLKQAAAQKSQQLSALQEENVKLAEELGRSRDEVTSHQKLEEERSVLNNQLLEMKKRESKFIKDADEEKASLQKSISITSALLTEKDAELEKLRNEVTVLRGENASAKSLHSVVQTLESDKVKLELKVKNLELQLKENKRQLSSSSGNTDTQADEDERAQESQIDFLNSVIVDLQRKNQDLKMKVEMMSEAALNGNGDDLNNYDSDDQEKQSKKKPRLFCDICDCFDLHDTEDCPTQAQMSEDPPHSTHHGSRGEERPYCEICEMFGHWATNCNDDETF
UniProt P62633: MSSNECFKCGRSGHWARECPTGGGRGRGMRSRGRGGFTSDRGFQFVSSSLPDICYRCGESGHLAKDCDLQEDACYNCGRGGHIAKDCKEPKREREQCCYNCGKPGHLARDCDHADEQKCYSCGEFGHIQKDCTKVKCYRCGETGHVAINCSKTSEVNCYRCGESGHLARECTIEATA
UniProt Q96MX0: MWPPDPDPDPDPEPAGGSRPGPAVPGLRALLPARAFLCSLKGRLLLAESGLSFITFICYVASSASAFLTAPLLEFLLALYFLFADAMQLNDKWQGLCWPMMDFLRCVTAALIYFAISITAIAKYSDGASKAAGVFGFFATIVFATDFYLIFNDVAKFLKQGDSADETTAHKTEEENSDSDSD
UniProt Q13286: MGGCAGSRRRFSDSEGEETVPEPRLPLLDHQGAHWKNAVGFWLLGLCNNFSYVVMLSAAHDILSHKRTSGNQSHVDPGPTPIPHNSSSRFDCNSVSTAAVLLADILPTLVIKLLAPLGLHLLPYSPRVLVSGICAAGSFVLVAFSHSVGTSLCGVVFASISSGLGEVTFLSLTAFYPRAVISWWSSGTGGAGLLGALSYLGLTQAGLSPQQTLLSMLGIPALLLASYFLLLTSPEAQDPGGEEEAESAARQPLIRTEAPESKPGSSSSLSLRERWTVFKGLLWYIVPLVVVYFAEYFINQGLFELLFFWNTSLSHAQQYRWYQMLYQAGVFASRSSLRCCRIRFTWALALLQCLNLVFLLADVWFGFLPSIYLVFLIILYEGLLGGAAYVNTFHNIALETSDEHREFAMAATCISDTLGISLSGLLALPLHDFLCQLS

What all share (test): log2 fold change, soluble protein after heating vs DMSO (PISA); higher = thermal stabilisation; K562 cells, 10 uM, 30 min; active = over 0.2 and 3.5 SD of the protein, either way, in both replicates (recomputed)
Compound in one assay: C#Cc1cccc(Nc2ncnc3cc(OCCOC)c(OCCOC)cc23)c1 [erlotinib]
The essentials:
(§1)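 Thermal stability values are relative to control samples and come from duplicates. They are expressed as log2 fold changes. For measurement, K562 cells (2×10^6 cells/mL) received 10 μM compound for 30 min, and aliquots were heated for 3 min over 48°C-58°C, pooled, and extracted at 4°C in PBS with 0.5% NP-40. Soluble protein, the supernatant after 21,000xg for 90 min, was quantified by TMTpro 16plex LC-MS/MS with equalised channel sums.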

Compound in assay [1]: C/C(=N\NC(=O)C1=CC(=CC=C1)S(=O)(=O)N2CCOCC2)/C3=C(C=CC(=C3)Cl)O
A digest of the protocol: as §1

Compound in assay [2]: C1=CC(=C(C=C1Cl)C2=NC3=NC=CN=C3C(=N2)NC4=CC=NC=C4)F
A digest of the protocol:
as §1

Compound in assay [3]: C1=CC(=CC=C1C2=NC3=C(N2)C=C(C=C3)C(=O)N)OC4=CC=C(C=C4)Cl
A digest of the protocol: as §1

Compound in assay [4]: C1=CC2=C(C=CC(=C2)/C=C\3/C(=O)NC(=NCC4=CC=CS4)S3)N=C1
The essentials: as §1

Compound in assay [5]: C1=CC2=NC=CN=C2C=C1/C=C/3\C(=O)NC(=O)S3
The essentials:
as §1

Compound in assay [6]: C1=CC=C2C(=C1)C3=NNC4=CC=CC(=C43)C2=O
A digest of the protocol:
as §1

Compound in assay [7]: C1CCN(C1)C(=O)NC2=CC=CC(=C2)NC3=NC=C(C(=N3)NCCC4=CN=CN4)Br
A digest of the protocol:
as §1

Compound in assay [8]: C1CN(CCC1(CC2=CC=C(C=C2)Cl)N)C3=NC=NC4=C3C=CN4
The essentials:
as §1

Compound in the next assay: C1COCCN1CCN2C3=CC=CC=C3N=C2NC(=O)C4=CC(=CC=C4)[N+](=O)[O-] [IRAK-1-4 Inhibitor I]
The essentials: as §1

Compound in a further assay: C=CC(=O)N1CCC[C@@H](n2nc(-c3ccc(Oc4ccccc4)cc3)c3c(N)ncnc32)C1 [ibrutinib]
The essentials:
as §1

Compound in assay [9]: CC(=O)c1cnc2ccc(-c3cc(Cl)c(O)c(Cl)c3)nc2c1N[C@H]1CC[C@H](CN(C)C)CC1
The essentials: as §1

Compound in assay [10]: CC(C)(O)CC(=O)NCCn1ccc2ncnc(Nc3ccc(Oc4cccc(C(F)(F)F)c4)c(Cl)c3)c21
The essentials: as §1

Compound in assay [11]: CC(C)C1=C2N=C(C=C(N2N=C1)NCC3=CC=CC=C3)NCCCCCCN
A digest of the protocol:
as §1

Compound in the next assay: CC(C)N(C[C@H]1O[C@@H](n2cnc3c(N)ncnc32)[C@H](O)[C@@H]1O)[C@H]1C[C@@H](CCc2nc3cc(C(C)(C)C)ccc3[nH]2)C1 [pinometostat]
The essentials: as §1

Compound in assay [12]: CC1=C(C(CC(=O)N1)C2=CC=C(C=C2)C(F)(F)F)C(=O)NC3=C(C=C4C(=C3)C=NN4)F
The essentials: as §1

Compound in assay [13]: CC1=C(C2=C(C=C1)C(=O)C3=CC=CC=C3N2CCCN)C
A digest of the protocol: as §1

Compound in assay [14]: C1=CC=C(C=C1)C2=NC(=C(N2)C3=CC=NC=C3)C4=CC(=C(C=C4)Cl)O
A digest of the protocol: as §1

Compound in a further assay: CC(C)(C)Cn1c(N)nc2ccc(-c3[nH]c(C(C)(C)C)nc3-c3ccc(F)cc3)nc21 [ralimetinib]
The essentials: as §1

Compound in assay [15]: CC(C)C[C@@H](C=O)NC(=O)[C@H](CC(C)C)NC(=O)[C@H](CC(C)C)NC(=O)OCc1ccccc1
A digest of the protocol:
as §1

The list shows a part of the results. Residues, ends and D or L forms follow the SMILES beside them. *: point of attachment. Cbz = O=C(OCc1ccccc1)*

On to CHST2 (UniProt Q9Y4C5), for which the log2 fold change with erlotinib is inactive: -0.008; in assay [1] it was inactive: -0.05; in assay [2], inactive: -0.052; in assay [3], inactive: -0.098; in [4], inactive: 0.095; in assay [5], inactive: 0.093. In addition, the log2 fold change in assay [6] is inactive: 0.136; in assay [7], inactive: -0.124; in [8], inactive: 0.125; with IRAK-1-4 Inhibitor I it was inactive: -0.087; with ibrutinib, inactive: -0.092; in assay [9], inactive: 0.06. Also, the log2 fold change in [10] is inactive: 0.037; in assay [11] it was inactive: 0.082; with pinometostat, inactive: 0.091; in assay [12] it was inactive: -0.006; in [13] it was inactive: 0.157.
On to COG4 (UniProt Q9H9E3), for which the log2 fold change in the assay with erlotinib is inactive: 0.091; in assay [2] it was inactive: -0.008; in assay [3] it was inactive: -0.062; in [14], inactive: -0.003; in assay [7] it was inactive: -0.155; in assay [8], inactive: -0.437. The log2 fold change in the assay with IRAK-1-4 Inhibitor I was inactive: -0.152; with ralimetinib, inactive: 0.126; in [10] it was inactive: -0.103; in [11], inactive: -0.202; in assay [15] it was inactive: 0.136; with pinometostat, inactive: 0.192. The log2 fold change in assay [12] was inactive: 0.043; in assay [13], inactive: -0.223.
CNN3 (UniProt Q15417): the log2 fold change was inactive: 0.013 in the assay with erlotinib; inactive: 0.158 in [1]; inactive: 0.064 in assay [2]; inactive: -0.088 in assay [3]; inactive: 0.054 in assay [4]; inactive: 0.056 in assay [5]. Further, the log2 fold change in [6] is inactive: 0.016; in [7], inactive: 0.041; in assay [8] it was inactive: -0.116; with ibrutinib it was inactive: -0.067; in assay [9] it was inactive: -0.007; in [10] it was inactive: -0.138. Besides, the figures for the log2 fold change in [11] and in assay [13] were inactive: -0.17 and inactive: 0.012, respectively.
For CLN8 (UniProt Q9UBY8), the log2 fold change is inactive: 0.012 in the assay with erlotinib; inactive: 0.198 in [1]; inactive: 0.01 in [3]; inactive: 0.212 in [4]; inactive: 0.099 in assay [5]; inactive: -0.208 in [14]. Also, the log2 fold change in [6] was inactive: -0.06; in assay [7] it was inactive: 0.003; in assay [8], inactive: -0.171; in assay [9] it was inactive: -0.164; in the assay with ralimetinib, inactive: 0.643; in assay [11], inactive: 0.017. The results for the log2 fold change in [15] and in assay [13] were inactive: 0.139 and inactive: 0.138, respectively.
Turning to CLASP2 (UniProt O75122), the log2 fold change in the assay with erlotinib is inactive: 0.089; in [1], inactive: -0.078; in [3], inactive: 0.082; in assay [4], inactive: -0.211; in assay [5], inactive: 0.133; in assay [14], inactive: 0.286. Also, the log2 fold change in assay [6] is inactive: -0.106; with IRAK-1-4 Inhibitor I, inactive: 0.027; in assay [9], inactive: -0.852; in the assay with ralimetinib, inactive: -0.067; in assay [11] it was inactive: 0.086; in assay [15] it was inactive: 0.161. For the same target, the log2 fold change with pinometostat was inactive: 0.057.
In the case of CMPK2 (UniProt Q5EBM0), the log2 fold change was inactive: 0.059 with erlotinib; inactive: -0.002 in assay [1]; inactive: 0.044 in [2]; inactive: 0.011 in assay [3]; inactive: 0.066 in [4]; inactive: -0.051 in assay [5]. Moreover, the log2 fold change in assay [6] is inactive: 0.016; in assay [7], inactive: -0.02; in [8], inactive: 0.008; with IRAK-1-4 Inhibitor I, inactive: 0.088; in the assay with ibrutinib it was inactive: 0; in assay [9] it was inactive: -0.065. Further, the log2 fold change in [10] was inactive: -0.059; in assay [11], inactive: -0.124; in the assay with pinometostat it was inactive: 0.035; in [12], inactive: 0.007; in [13], inactive: 0.038.
On to CLIP1 isoform 2 (UniProt P30622), for which the log2 fold change with erlotinib is inactive: -0.117; in [2], inactive: 0.057; in assay [3] it was inactive: 0.156; in assay [5] it was inactive: 0.058; in assay [14], inactive: -0.045; with ralimetinib it was inactive: 0.016. In addition, the log2 fold change in assay [10] is inactive: 0.041; in assay [11], inactive: -0.017; in assay [15] it was inactive: 0.072; in assay [12], inactive: -0.004.
Regarding CNBP (UniProt P62633), the log2 fold change was inactive: 0.132 with erlotinib; inactive: -0.071 in assay [1]; inactive: -0.108 in [3]; inactive: -0.227 in [4]; inactive: 0.005 in assay [5]; inactive: -0.079 in assay [6]. Moreover, the log2 fold change was inactive: 0.068 in the assay with ibrutinib, inactive: -0.009 in [9], inactive: -0.102 in assay [11] and inactive: 0.024 in assay [12].
For CMTM3 (UniProt Q96MX0), the log2 fold change in the assay with erlotinib was inactive: 0.032; in assay [1], inactive: -0.055; in assay [2], inactive: 0.166; in assay [3] it was inactive: -0.044; in assay [4], inactive: 0.034; in assay [5], inactive: 0.066. Moreover, the log2 fold change in assay [6] is inactive: -0.007; in [7] it was inactive: 0.002; in assay [8] it was inactive: 0.051; with IRAK-1-4 Inhibitor I, inactive: 0.021; in the assay with ibrutinib, inactive: 0.014; in assay [9], inactive: 0.003. In addition, the log2 fold change in [10] is inactive: -0.108; in assay [11], inactive: 0.068; with pinometostat it was inactive: 0; in assay [13] it was inactive: -0.062.
With CLN3 (UniProt Q13286), the log2 fold change in the assay with erlotinib is inactive: 0; in assay [2] it was inactive: 0.025; in assay [3], inactive: 0.162; in assay [5], inactive: 0.117; in assay [14], inactive: -0.05; in assay [7] it was inactive: 0.055. For the same target, the log2 fold change in [8] is inactive: 0.026; in the assay with IRAK-1-4 Inhibitor I, inactive: 0.106; with ralimetinib, inactive: -0.05; in assay [10], inactive: -0.011; in assay [11] it was active: -0.532; in [15] it was inactive: -0.043. In addition, the figures for the log2 fold change (in the assay with pinometostat; in [13]) were inactive: -0.113 and inactive: -0.147, respectively.
